Test [1] addresses RuBisCO large subunit RbcL from Anabaena sp. PCC 7120 (His-RbcL) (Anabaena sp. PCC 7120) (UniProt P00879). Kind of test: cryo-EM structure; RbcL–Raf1–RbcX ternary complex co-expressed in E. coli with GroEL-GroES, purified by Ni-NTA and gel filtration in 50 mM Tris-HCl pH 8.0, 20 mM NaCl, 5 mM MgCl2; ~2 mg/mL; D4 symmetry; 3.3 Å; both purified.
For test [2] the target is unchanged. Kind of test: native gel or EMSA; RuBisCO assembly assays: 0.5 µM L8F8 or L8F8X16 mixed with Flag-RbcS (0-10-fold to RbcL), with or without pre-incubation with 8 µM RbcX or RbcX^E32A&R69A or RbcX2 at 0-1 fold to RbcL; 25 °C, 20 mM Tris-HCl pH 8.0, 300 mM NaCl, 5 mM MgCl2, 5% glycerol; ~0.5 h; 6% native-PAGE, bands analysed by SDS-PAGE; both purified.
Test [3] shares this target. Kind of test: co-purification (Ni-NTA, gel filtration); cells expressing Flag-RbcS and cells expressing His-RbcL with RbcX and S. elongatus PCC 7942 Raf1 (and GroEL-GroES) were mixed and disrupted; purified as the ternary complex by Ni-NTA and gel filtration to give the L8S8 holoenzyme.

Experimental findings from paper PMC9485235, “Structural insights into cyanobacterial RuBisCO assembly coordinated by two chaperones Raf1 and RbcX” (Cell Discovery, 2022) are described below.

Results are given in words; binding and its absence hold for the method and conditions named. Some results given as binding are weak or reduced against the parent protein; the word gives no strength. For part of these data: Sequences can lack the tags named with a protein.

B1: RuBisCO accumulation factor 1 (Raf1) from Anabaena sp. PCC 7120 (protein, UniProt Q8YLP6 1-361)
chain: MTELPPNAPNPENATNELAQELLRKLRQKQGNWVEWGQAIASLQKSGYNPQDIFEATGFEPVQQNQVIVGSQVYNSLEKSGASAATLAHYATRGSDVLYELRLLTHEERAAAGDLTFTHKVDADEAREIAKAIKDFSRFRILPEGFSNHPGDAVAYQAWKLARQYSDLQERSRLIARGLRFAHSETARKQIEQLLVDFTVVSQRPAPIPPFFRFDTEDELPRIVPVVGQLPLKAEELKAVPLVEEIEPFRLVKFSGEQAWVALPGWQVLLAAEDPVTILATSDRFPKQNQTEPGPVLVVVDRSQREWNDFSYFVVDHDGELDFQWFETKPEFPILGKVIILVRPRRILDENVTKDSWQIDE
As to B1, the binding result in test [1] and in test [2] was “binds” throughout.

B2: Recombinant Anabaena sp. PCC 7120 Flag-RbcS (RuBisCO small subunit) (natural protein, UniProt P06514 1-109, looked up)
chain: MQTLPKERRYETLSYLPPLTDVQIEKQVQYILSQGYIPAVEFNEVSEPTELYWTLWKLPLFGAKTSREVLAEVQSCRSQYPGHYIRVVGFDNIKQCQILSFIVHKPSRY
notes: RbcS, RuBisCO small subunit, Anabaena sp; coding region amplified from genomic DNA; plasmid pET19-Flag-RbcS; A His-RbcS was also made (pET19-His-RbcS); the assembly-assay methods name Flag-RbcS; source: E. coli BL21 (DE3), purified (anti-FLAG M2 gel, Superdex 75); also in lysate (holoenzyme co-purification)
In the case of B2, the binding result in test [3] is listed as “binds”.
